From patent publication US8846696B2, “Purine derivatives” (Cyclacel Limited, priority 2002, dated 2014)

What was measured:
Type in all cases: cell-based
HL-60 = experiment: 72-h MTT assay HL-60; details: Homo sapiens, HL-60, 72 h, read-out: 72-h MTT IC50
Description: (§1) The cell lines were obtained from the ATCC (American Type Culture Collection, 10801 University Boulevard, Manessas, Va. 20110-2209, USA). Standard 72-h MTT (thiazolyl blue; 3-[4,5-dimethylthiazol-2-yl]-2,5-diphenyltetrazolium bromide) assays were performed (Haselsberger, K.; Peterson, D. C.; Thomas, D. G.; Darling, J. L. Anti Cancer Drugs 1996, 7, 331-8; Loveland, B. E.; Johns, T. G.; Mackay, I. R.; Vaillant, F.; Wang, Z. X.; Hertzog, P. J. Biochemistry International 1992, 27, 501-10). In short: cells were seeded into 96-well plates according to doubling time and incubated overnight at 37° C. Test compounds were made up in DMSO and a ⅓ dilution series prepared in 100 μL cell media, added to cells (in triplicates) and incubated for 72 ho at 37° C. MTT was made up as a stock of 5 mg/mL in cell media and filter-sterilised. Media was removed from cells followed by a wash with 200 μL PBS. MTT solution was then added at 20 μL per well and incubated in the dark at 37° C. for 4 h. MTT solution was removed and cells again washed with 200 μL PBS. MTT dye was solubilised with 200 μL per well of DMSO with agitation.
(§2) Representative compounds of this invention were examined for their anti-proliferative effect against human tumour cell lines and immortalized non-transformed human cell lines (“normal” cell lines). […].

HT-29 = experiment: 72-h MTT assay HT-29; details: Homo sapiens, HT-29, 72 h, read-out: 72-h MTT IC50
Description: as §1, §2

K-562 = experiment: 72-h MTT assay K-562; details: Homo sapiens, K562, 72 h, read-out: 72-h MTT IC50
Description: as §1, §2

A549 = experiment: 72-h MTT assay A549; details: Homo sapiens, A549, 72 h, read-out: 72-h MTT IC50
Description: as §1, §2

Hs27 = experiment: 72-h MTT assay Hs27; details: Homo sapiens, HS27, 72 h, read-out: 72-h MTT IC50
Description: as §1, §2

cancer cell lines = experiment: 72-h MTT assay, mean of cancer cell lines; details: Homo sapiens, read-out: 72-h MTT IC50, Mean (cancer cell lines)
Description: as §1, §2

IMR90 = experiment: 72-h MTT assay IMR90; details: Homo sapiens, IMR-90, 72 h, read-out: 72-h MTT IC50
Description: as §1, §2

HeLa = experiment: 72-h MTT assay HeLa; details: Homo sapiens, read-out: 72-h MTT IC50
Description: as §1, §2

[1] = test system: representative panel of human transformed tumour cell lines; experiment: Anti-proliferative activity in a representative panel of human transformed tumour cell lines; details: average over representative panel of human transformed tumour cell lines
WI38 = experiment: 72-h MTT assay WI38; details: Homo sapiens, WI-38, 72 h, read-out: 72-h MTT IC50
Description: as §1, §2

MCF7 = experiment: 72-h MTT assay MCF7; details: Homo sapiens, MCF7, 72 h, read-out: 72-h MTT IC50
Description: as §1, §2

normal cell lines = experiment: 72-h MTT assay, mean of normal cell lines; details: Homo sapiens, read-out: 72-h MTT IC50, Mean (normal cell lines)
Description: as §1, §2

CCRF-CEM = experiment: 72-h MTT assay CCRF-CEM; details: Homo sapiens, read-out: 72-h MTT IC50
Description: as §1, §2

## CC[C@H](CO)Nc1nc(NCc2ccccc2)c2ncn(C(C)C)c2n1 [Roscovitine, roscovitine, reference compound]
HL-60
  IC50: 13.3 ± 1.1 µM
HT-29
  IC50: 10.2 ± 2.7 µM
K-562
  IC50: 40.4 ± 4.4 µM
A549
  IC50: 9.7 ± 1.1 µM
Hs27
  IC50: > 20 µM
Cancer cell lines
  IC50: 16.3 ± 10.2 µM
IMR90
  IC50: > 20 µM
HeLa
  IC50: 16.5 ± 1.8 µM
[1]
  IC50: ~10 µM
WI38
  IC50: > 20 µM
MCF7
  IC50: 8.7 ± 0.5 µM
Normal cell lines
  IC50: > 20 µM
CCRF-CEM
  IC50: 16.4 ± 0.8 µM
